Test results published in paper PMC10147376.
These are yes or no findings as the source states them, for the method shown. A result given as binding can be weak or reduced; the word gives no strength. Where a sequence is shown, tags or fusion partners need not be part of it.

What follows are substances tested against T1, FhuC, ATPase of the hydroxamate siderophore transporter, T18 fusion (pUT18C:fhuC) (S. aureus USA300 LAC) (UniProt Q9X665) (assay: two-hybrid; BACTH in E. coli BTH101: pKT25 (T25) permease + pUT18C (T18) FhuC; blue colonies on LB agar indicator plates with X-Gal and 0.5 mM IPTG after 1 day at 30°C).
T1 sequence: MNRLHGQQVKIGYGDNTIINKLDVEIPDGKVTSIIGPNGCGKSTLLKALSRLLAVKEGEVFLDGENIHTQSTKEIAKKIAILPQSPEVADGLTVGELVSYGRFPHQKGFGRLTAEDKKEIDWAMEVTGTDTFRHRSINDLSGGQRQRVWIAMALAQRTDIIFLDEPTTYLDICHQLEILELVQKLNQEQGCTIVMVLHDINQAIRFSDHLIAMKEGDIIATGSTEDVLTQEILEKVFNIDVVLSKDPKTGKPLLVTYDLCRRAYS
For “IsdF A213F G217F, T25 fusion (pKT25:isdF_A+G_F) (S. aureus USA300 LAC)”, the binding was “no binding”.
For “IsdF A213F, T25 fusion (pKT25:isdF_A213F) (S. aureus USA300 LAC)”, the binding was “binds”.
“IsdF G217F, T25 fusion (pKT25:isdF_G217F) (S. aureus USA300 LAC)” was tested, and the binding was “binds”.
